Reference: patent US20110239316A1
No constants are given. Whether binding was seen depends on the method and setting. Some results given as binding are weak or reduced against the parent protein; the word gives no strength.

The chains behind the UniProt entries cited, without tags or fusion partners. Residues count along the entry.
UniProt P08581, residues 25-932: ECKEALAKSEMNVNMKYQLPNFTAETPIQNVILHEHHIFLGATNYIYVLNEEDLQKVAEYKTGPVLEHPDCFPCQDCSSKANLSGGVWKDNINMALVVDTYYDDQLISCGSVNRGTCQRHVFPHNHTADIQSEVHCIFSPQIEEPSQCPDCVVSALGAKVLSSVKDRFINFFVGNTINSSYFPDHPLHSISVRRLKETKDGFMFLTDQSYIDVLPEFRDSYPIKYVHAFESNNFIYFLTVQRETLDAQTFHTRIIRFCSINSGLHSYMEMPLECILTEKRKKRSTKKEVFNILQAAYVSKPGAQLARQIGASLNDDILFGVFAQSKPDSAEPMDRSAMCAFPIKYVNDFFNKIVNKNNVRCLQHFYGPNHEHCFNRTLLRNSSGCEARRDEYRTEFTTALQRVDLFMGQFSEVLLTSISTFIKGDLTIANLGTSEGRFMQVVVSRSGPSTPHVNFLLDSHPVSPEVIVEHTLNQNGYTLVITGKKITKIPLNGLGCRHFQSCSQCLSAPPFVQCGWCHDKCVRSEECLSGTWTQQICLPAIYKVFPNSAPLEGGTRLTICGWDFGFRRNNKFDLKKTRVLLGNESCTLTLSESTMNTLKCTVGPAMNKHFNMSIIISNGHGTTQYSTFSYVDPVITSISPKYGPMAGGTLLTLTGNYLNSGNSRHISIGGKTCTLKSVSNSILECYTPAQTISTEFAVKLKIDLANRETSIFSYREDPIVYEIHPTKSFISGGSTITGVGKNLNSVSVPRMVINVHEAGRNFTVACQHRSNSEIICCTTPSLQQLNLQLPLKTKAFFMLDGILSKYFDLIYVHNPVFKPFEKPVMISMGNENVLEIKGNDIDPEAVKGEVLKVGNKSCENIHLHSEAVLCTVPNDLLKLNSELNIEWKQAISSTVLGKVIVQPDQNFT

Target: recombinant dimeric c-Met from R&D Systems (UniProt P08581)
Assay: direct ELISA, recombinant dimeric c-Met coated at 1.25 µg/ml, anti-mouse IgG HRP

binding: binds
B1: murine 224G11 Mab (antibody, V domains shown)
VH: EVQLQQSGPELVKPGASVKISCKTSGYIFTAYTMHWVRQSLGESLDWIGGIKPNNGLANYNQKFKGKATLTVDKSSSTAYMDLRSLTSEDSAVYYCARSEITTEFDYWGQGTALTVSS
VL: DIVLTQSPASLAVSLGQRATISCRASESVDSYANSFMHWYQQKPGQPPKLLIYRASNLESGIPARFSGSGSRTDFTLTINPVEADDVATYYCQQSKEDPLTFGSGTKLEMKR
